The target of assay [1] is human IGF1R (human) (UniProt P08069). Put plainly: SPR; IGF1R immobilised on a CM4 chip at high density (~2,500 RUs) in 10 mM acetate pH 4.0; analytes flowed at 40 uL/min, contact 300 s, dissociation 400 s; 25 C; HBS-EP or HBS-EP+ running buffer, pH 7.4, 150 mM NaCl; Biacore T200 or 3000; 1:1 binding model; both purified.
Assay [2] concerns the target rhesus IGF1R (rhesus). The description is as above.

Amino acid sequences for entries named in this document (tags omitted). A change or cut given only in a name is not applied to a line headed by its entry.
UniProt P08069: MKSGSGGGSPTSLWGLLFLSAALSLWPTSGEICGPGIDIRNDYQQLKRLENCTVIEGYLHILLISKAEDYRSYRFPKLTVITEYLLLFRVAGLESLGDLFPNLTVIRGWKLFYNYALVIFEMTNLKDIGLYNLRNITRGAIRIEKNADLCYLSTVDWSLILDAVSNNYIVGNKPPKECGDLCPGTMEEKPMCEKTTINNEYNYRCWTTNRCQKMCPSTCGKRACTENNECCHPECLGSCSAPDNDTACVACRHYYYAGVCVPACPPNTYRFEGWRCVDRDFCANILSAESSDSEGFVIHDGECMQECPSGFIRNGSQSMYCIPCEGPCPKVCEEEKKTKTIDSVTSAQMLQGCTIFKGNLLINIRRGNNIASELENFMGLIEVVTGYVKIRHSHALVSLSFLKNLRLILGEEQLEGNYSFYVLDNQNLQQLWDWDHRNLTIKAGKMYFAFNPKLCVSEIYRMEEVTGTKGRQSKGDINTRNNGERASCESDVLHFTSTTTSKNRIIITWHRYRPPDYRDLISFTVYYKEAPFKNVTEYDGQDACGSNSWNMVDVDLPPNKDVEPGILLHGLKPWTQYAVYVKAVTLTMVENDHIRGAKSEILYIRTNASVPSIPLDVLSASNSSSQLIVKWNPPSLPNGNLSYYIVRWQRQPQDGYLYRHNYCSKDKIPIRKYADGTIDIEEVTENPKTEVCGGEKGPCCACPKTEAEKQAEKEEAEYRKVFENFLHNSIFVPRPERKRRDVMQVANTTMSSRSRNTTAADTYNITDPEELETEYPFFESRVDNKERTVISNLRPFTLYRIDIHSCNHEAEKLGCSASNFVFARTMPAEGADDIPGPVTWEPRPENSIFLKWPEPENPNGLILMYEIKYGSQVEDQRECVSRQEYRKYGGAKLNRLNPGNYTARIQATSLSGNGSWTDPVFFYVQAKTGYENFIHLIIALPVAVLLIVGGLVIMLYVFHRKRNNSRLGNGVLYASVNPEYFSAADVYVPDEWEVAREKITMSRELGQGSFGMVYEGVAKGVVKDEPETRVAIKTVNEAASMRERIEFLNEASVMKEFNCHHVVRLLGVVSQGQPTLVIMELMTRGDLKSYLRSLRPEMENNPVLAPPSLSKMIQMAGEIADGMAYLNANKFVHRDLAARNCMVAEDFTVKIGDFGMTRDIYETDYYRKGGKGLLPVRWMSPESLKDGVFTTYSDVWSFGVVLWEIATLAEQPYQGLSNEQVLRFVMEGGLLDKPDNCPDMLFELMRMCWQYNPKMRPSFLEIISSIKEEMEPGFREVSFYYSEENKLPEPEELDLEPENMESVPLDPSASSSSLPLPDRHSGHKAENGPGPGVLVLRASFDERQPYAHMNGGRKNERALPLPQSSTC

No constants are given. Whether binding was seen depends on the method and setting.

B1: iduronate-2-sulfatase (enzyme, UniProt P22304 26-550)
chain: SETQANSTTDALNVLLIIVDDLRPSLGCYGDKLVRSPNIDQLASHSLLFQNAFAQQAVCAPSRVSFLTGRRPDTTRLYDFNSYWRVHAGNFSTIPQYFKENGYVTMSVGKVFHPGISSNHTDDSPYSWSFPPYHPSSEKYENTKTCRGPDGELHANLLCPVDVLDVPEGTLPDKQSTEQAIQLLEKMKTSASPFFLAVGYHKPHIPFRYPKEFQKLYPLENITLAPDPEVPDGLPPVAYNPWMDIRQREDVQALNISVPYGPIPVDFQRKIRQSYFASVSYLDTQVGRLLSALDDLQLANSTIIAFTSDHGWALGEHGEWAKYSNFDVATHVPLIFYVPGRTASLPEAGEKLFPYLDPFDSASQLMEPGRQSMDLVELVSLFPTLAGLAGLQVPPRCPVPSFHVELCREGKNLLKHFRFRDLEEDPYLPGNPRELIAYSQYPRPSDIPQWNSDKPSLKDIKIMGYSIRTIDYRYTVWVGFNPDEFLANFSDIHAGELYFVDSDPLQDHNMYNDSQGGDLFQLLMP
B1: the binding result in assay [1] and in assay [2] was “no binding” each time.

Values taken from publication PMC11734454.
